Experimental data as given in paper PMC8688145.
These are yes or no findings as the source states them, for the method shown. For some of these results: Binding seen in cells or lysates may run through a third protein. Some entries that bind do so weakly or less than the wild type. Where a sequence is shown, tags or fusion partners need not be part of it. Each block holds one binder with its values, some of them ahead of it.

Key:
[1] = target: T1, FLAG-tagged human PEX2 (PEX2–FLAG) (human) (UniProt P28328); assay: co-IP; HEK293T whole cell extract 48 h after expressing PEX2–FLAG, LD formation induced by oleic acid; IP with anti-FLAG beads overnight at 4 °C in RIPA buffer (50 mM Tris-HCl pH 7.4, 150 mM NaCl, 2 mM EDTA, 1.0% Triton X-100); immunoblot
T1 sequence: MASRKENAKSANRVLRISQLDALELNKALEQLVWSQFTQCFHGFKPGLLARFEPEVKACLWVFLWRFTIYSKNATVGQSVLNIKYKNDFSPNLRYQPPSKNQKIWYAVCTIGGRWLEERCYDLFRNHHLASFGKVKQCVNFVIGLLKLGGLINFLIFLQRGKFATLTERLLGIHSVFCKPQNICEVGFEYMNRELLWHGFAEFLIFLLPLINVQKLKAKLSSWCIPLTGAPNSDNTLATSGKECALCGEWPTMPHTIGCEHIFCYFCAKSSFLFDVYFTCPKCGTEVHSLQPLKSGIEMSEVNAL

[2] = target: PEX2–FLAG expressed in iBAs (not stated (human or mouse cDNA cloned)) (UniProt P55098); assay: non-reducing SDS-PAGE and immunoblot after IP (disulfide-linked oligomers); FLAG-tagged PEX2 enriched by anti-FLAG IP from HEK293T cells, iBAs or mouse liver, eluted in BME-free Laemmli buffer; with or without H2O2 or MG132 treatment of the cells
[3] = target: FLAG-tagged murine PEX2 expressed in the liver (mouse) (UniProt P55098); assay: condition: only after β-mercaptoethanol (BME) treatment; reducing SDS-PAGE and immunoblot after IP; as a3, but PEX2 eluted by Laemmli buffer with BME
[4] = target: FLAG-tagged murine PEX2 expressed in the liver (mouse) (UniProt P55098); assay: non-reducing SDS-PAGE and immunoblot after IP (disulfide-linked oligomers); FLAG-tagged PEX2 enriched by anti-FLAG IP from HEK293T cells, iBAs or mouse liver, eluted in BME-free Laemmli buffer; with or without H2O2 or MG132 treatment of the cells
[5] = target: T2, murine PEX2–FLAG–EGFP (mouse) (UniProt P55098); assay: as above
T2 sequence: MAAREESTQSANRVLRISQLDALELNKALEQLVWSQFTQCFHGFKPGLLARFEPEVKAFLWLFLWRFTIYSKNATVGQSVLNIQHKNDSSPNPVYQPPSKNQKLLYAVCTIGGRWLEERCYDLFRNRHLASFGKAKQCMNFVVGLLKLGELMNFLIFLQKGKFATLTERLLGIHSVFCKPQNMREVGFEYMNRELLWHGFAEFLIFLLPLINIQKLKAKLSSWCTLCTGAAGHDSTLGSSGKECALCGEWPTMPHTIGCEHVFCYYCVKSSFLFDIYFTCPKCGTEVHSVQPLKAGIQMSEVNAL

[6] = target: human PEX2–FLAG–Myc (human) (UniProt P28328); assay: as above
[7] = target: human PEX2–FLAG–Myc (human) (UniProt P28328); assay: condition: only eluted by Laemmli buffer with BME (reducing state); reducing SDS-PAGE and immunoblot after IP; as a3, but PEX2 eluted by Laemmli buffer with BME
[8] = target: T2, murine PEX2–FLAG–EGFP (mouse); assay: proximity ligation; fixed iBAs expressing tagged PEX2; mouse FLAG antibody and rabbit ATGL antibody, Sigma-Aldrich DUO92101 kit; no antibodies as negative control

- binding [1]: binds
B1: adipose triglyceride lipase (ATGL), endogenous in HEK293T (enzyme, UniProt Q96AD5 1-504)
chain: MFPREKTWNISFAGCGFLGVYYVGVASCLREHAPFLVANATHIYGASAGALTATALVTGVCLGEAGAKFIEVSKEARKRFLGPLHPSFNLVKIIRSFLLKVLPADSHEHASGRLGISLTRVSDGENVIISHFNSKDELIQANVCSGFIPVYCGLIPPSLQGVRYVDGGISDNLPLYELKNTITVSPFSGESDICPQDSSTNIHELRVTNTSIQFNLRNLYRLSKALFPPEPLVLREMCKQGYRDGLRFLQRNGLLNRPNPLLALPPARPHGPEDKDQAVESAQAEDYSQLPGEDHILEHLPARLNEALLEACVEPTDLLTTLSNMLPVRLATAMMVPYTLPLESALSFTIRLLEWLPDVPEDIRWMKEQTGSICQYLVMRAKRKLGRHLPSRLPEQVELRRVQSLPSVPLSCAAYREALPGWMRNNLSLGDALAKWEECQRQLLLGLFCTNVAFPPEALRMRAPADPAPAPADPASPQHQLAGPAPLLSTPAPEARPVIGALGL

- binding [1]: binds
B2: human ATGL–FLAG (enzyme, UniProt Q96AD5 1-504)
chain: MFPREKTWNISFAGCGFLGVYYVGVASCLREHAPFLVANATHIYGASAGALTATALVTGVCLGEAGAKFIEVSKEARKRFLGPLHPSFNLVKIIRSFLLKVLPADSHEHASGRLGISLTRVSDGENVIISHFNSKDELIQANVCSGFIPVYCGLIPPSLQGVRYVDGGISDNLPLYELKNTITVSPFSGESDICPQDSSTNIHELRVTNTSIQFNLRNLYRLSKALFPPEPLVLREMCKQGYRDGLRFLQRNGLLNRPNPLLALPPARPHGPEDKDQAVESAQAEDYSQLPGEDHILEHLPARLNEALLEACVEPTDLLTTLSNMLPVRLATAMMVPYTLPLESALSFTIRLLEWLPDVPEDIRWMKEQTGSICQYLVMRAKRKLGRHLPSRLPEQVELRRVQSLPSVPLSCAAYREALPGWMRNNLSLGDALAKWEECQRQLLLGLFCTNVAFPPEALRMRAPADPAPAPADPASPQHQLAGPAPLLSTPAPEARPVIGALGL

- binding [2]: binds
B3: PEX2–FLAG expressed in iBAs (protein, UniProt P55098 1-305)
chain: MAAREESTQSANRVLRISQLDALELNKALEQLVWSQFTQCFHGFKPGLLARFEPEVKAFLWLFLWRFTIYSKNATVGQSVLNIQHKNDSSPNPVYQPPSKNQKLLYAVCTIGGRWLEERCYDLFRNRHLASFGKAKQCMNFVVGLLKLGELMNFLIFLQKGKFATLTERLLGIHSVFCKPQNMREVGFEYMNRELLWHGFAEFLIFLLPLINIQKLKAKLSSWCTLCTGAAGHDSTLGSSGKECALCGEWPTMPHTIGCEHVFCYYCVKSSFLFDIYFTCPKCGTEVHSVQPLKAGIQMSEVNAL
modifications: intramolecular and intermolecular disulfide bonds (non-reducing state)

- binding [3]: no binding
- binding [4]: binds
B4: FLAG-tagged murine PEX2 expressed in the liver (protein, UniProt P55098 1-305)
chain: MAAREESTQSANRVLRISQLDALELNKALEQLVWSQFTQCFHGFKPGLLARFEPEVKAFLWLFLWRFTIYSKNATVGQSVLNIQHKNDSSPNPVYQPPSKNQKLLYAVCTIGGRWLEERCYDLFRNRHLASFGKAKQCMNFVVGLLKLGELMNFLIFLQKGKFATLTERLLGIHSVFCKPQNMREVGFEYMNRELLWHGFAEFLIFLLPLINIQKLKAKLSSWCTLCTGAAGHDSTLGSSGKECALCGEWPTMPHTIGCEHVFCYYCVKSSFLFDIYFTCPKCGTEVHSVQPLKAGIQMSEVNAL
modifications: intermolecular and intramolecular disulfide bonds (without BME)

- binding [5]: binds
B5: murine PEX2–FLAG–EGFP (protein, UniProt P55098 1-305)
chain: MAAREESTQSANRVLRISQLDALELNKALEQLVWSQFTQCFHGFKPGLLARFEPEVKAFLWLFLWRFTIYSKNATVGQSVLNIQHKNDSSPNPVYQPPSKNQKLLYAVCTIGGRWLEERCYDLFRNRHLASFGKAKQCMNFVVGLLKLGELMNFLIFLQKGKFATLTERLLGIHSVFCKPQNMREVGFEYMNRELLWHGFAEFLIFLLPLINIQKLKAKLSSWCTLCTGAAGHDSTLGSSGKECALCGEWPTMPHTIGCEHVFCYYCVKSSFLFDIYFTCPKCGTEVHSVQPLKAGIQMSEVNAL

- binding [1]: no binding
B6: CGI-58 (protein, UniProt Q8WTS1 1-349)
chain: MAAEEEEVDSADTGERSGWLTGWLPTWCPTSISHLKEAEEKMLKCVPCTYKKEPVRISNGNKIWTLKFSHNISNKTPLVLLHGFGGGLGLWALNFGDLCTNRPVYAFDLLGFGRSSRPRFDSDAEEVENQFVESIEEWRCALGLDKMILLGHNLGGFLAAAYSLKYPSRVNHLILVEPWGFPERPDLADQDRPIPVWIRALGAALTPFNPLAGLRIAGPFGLSLVQRLRPDFKRKYSSMFEDDTVTEYIYHCNVQTPSGETAFKNMTIPYGWAKRPMLQRIGKMHPDIPVSVIFGARSCIDGNSGTSIQSLRPHSYVKTIAILGAGHYVYADQPEEFNQKVKEICDTVD

- binding [6]: binds
- binding [7]: no binding
B7: human PEX2–FLAG–Myc (protein, UniProt P28328 1-305)
chain: MASRKENAKSANRVLRISQLDALELNKALEQLVWSQFTQCFHGFKPGLLARFEPEVKACLWVFLWRFTIYSKNATVGQSVLNIKYKNDFSPNLRYQPPSKNQKIWYAVCTIGGRWLEERCYDLFRNHHLASFGKVKQCVNFVIGLLKLGGLINFLIFLQRGKFATLTERLLGIHSVFCKPQNICEVGFEYMNRELLWHGFAEFLIFLLPLINVQKLKAKLSSWCIPLTGAPNSDNTLATSGKECALCGEWPTMPHTIGCEHIFCYFCAKSSFLFDVYFTCPKCGTEVHSLQPLKSGIEMSEVNAL
modifications: intramolecular and intermolecular disulfide bonds (non-reducing state)

- binding [8]: binds
B8: ATGL, endogenous in iBAs (enzyme, UniProt Q8BJ56 1-486)
chain: MFPRETKWNISFAGCGFLGVYHIGVASCLREHAPFLVANATHIYGASAGALTATALVTGACLGEAGANIIEVSKEARKRFLGPLHPSFNLVKTIRGCLLKTLPADCHERANGRLGISLTRVSDGENVIISHFSSKDELIQANVCSTFIPVYCGLIPPTLQGVRYVDGGISDNLPLYELKNTITVSPFSGESDICPQDSSTNIHELRVTNTSIQFNLRNLYRLSKALFPPEPMVLREMCKQGYRDGLRFLRRNGLLNQPNPLLALPPVVPQEEDAEEAAVVEERAGEEDQLQPYRKDRILEHLPARLNEALLEACVEPKDLMTTLSNMLPVRLATAMMVPYTLPLESAVSFTIRLLEWLPDVPEDIRWMKEQTGSICQYLVMRAKRKLGDHLPSRLSEQVELRRAQSLPSVPLSCATYSEALPNWVRNNLSLGDALAKWEECQRQLLLGLFCTNVAFPPDALRMRAPASPTAADPATPQDPPGLPPC
